This note sets out measurements from PMC5785358, “The STENOFOLIA gene from Medicago alters leaf width, flowering time and chlorophyll content in transgenic wheat”.

Tags and fusion partners may be left off the protein sequences shown.

The target in the series is T1, MBP-STF full length (STENOFOLIA) (Medicago truncatula) (UniProt G0ZGT3).
T1 sequence (looked up): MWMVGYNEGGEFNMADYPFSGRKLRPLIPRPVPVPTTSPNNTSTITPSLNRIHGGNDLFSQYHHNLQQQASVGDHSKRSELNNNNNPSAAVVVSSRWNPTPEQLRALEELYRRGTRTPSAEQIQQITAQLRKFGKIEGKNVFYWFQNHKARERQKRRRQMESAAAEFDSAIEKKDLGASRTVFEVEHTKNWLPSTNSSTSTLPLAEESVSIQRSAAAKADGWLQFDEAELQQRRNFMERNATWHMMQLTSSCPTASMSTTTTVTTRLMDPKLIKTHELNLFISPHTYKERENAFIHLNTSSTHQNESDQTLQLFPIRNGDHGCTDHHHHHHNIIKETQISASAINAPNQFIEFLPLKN
Kind of series: EMSA. As to conditions: 10 mM Tris pH 7.5, 50 mM KCl, 1 mM DTT, 2.5% glycerol, 0.05% NP-40, 5 mM MgCl2, 0.5 mM EDTA, 5 ng/uL poly(dI.dC), 1 ug protein, 100 fmol probe, room temperature 40 min; recombinant protein; residues 1-358; protein details: MBP (N-terminal, pMAL-c2X); label: 3' biotin. For orientation: Mobility shift assays separate free from complexed probe on a gel.

On to “TTGCAGATACCAATGCAGTAATGCAATCTTCCTGCCTATATAAAGCACCCCGTTAGCAACCTTACAATTCAGGCGAAGAGGTTCAACGAACACAGAGAGCTCCTCTCCAAACCTCTCCCTTCTCCCCGCCAGGAGTCTAGGGTTAGAGAGAGAGAGAGAGAGTGAGACAAGAGCAAAAATAATCTCTCGCCCCACTGTTATACCAAGGTTGCATCCATCTCATATCCCTC (double strand) [TaSWEET13-D1 probe]”, for which the binding result was “binds”.

“ATCCATTCCAGATTGCATAAGTGCAGCGTTTCTGATCAGCCAAGCAAGAGACAAGGGTTGTTCACGTGATCATGGACCCATGACACACCATTATAGCAACCTTCCAACCTAAAAATAGACCATCAAATCCTTTTCACTCACTGTCTGCCACTCCCCAGCCTCCCTGTATTTAAACCCATGCATTAGCCGTGAGAGAAACTAAATCGAACTAAAAGAGGGTGATCCAGTGAGCACAAACATGTCTGCCTCTGTCATG (double strand) [TaPSR-D1 probe]”: the binding result is on record as “binds”.
